Assay results reported in PubChem BioAssay (NCATS).
The inconclusive results got no clear call from the source; some entries with a clear call stand among them for comparison. For some assays here: Potencies of inconclusive entries are doubtful fits and often do not repeat. Active and inactive are the calls of the source. The call rests on the fitted dose curve; in most records, active means well fitted curve in the direction sought with a large enough effect; inconclusive means small, poorly fitted or top-dose-only effect, or another doubt; inactive means no such curve, though single readings can be large; an effect the other way counts as inactive or inconclusive.

Protein sequences, listed by entry. Tags and fused reporters are not part of them. Lines headed by an entry give the natural chain unless they say otherwise; changes in a name come on top.
UniProt P27695, whole entry, looked up: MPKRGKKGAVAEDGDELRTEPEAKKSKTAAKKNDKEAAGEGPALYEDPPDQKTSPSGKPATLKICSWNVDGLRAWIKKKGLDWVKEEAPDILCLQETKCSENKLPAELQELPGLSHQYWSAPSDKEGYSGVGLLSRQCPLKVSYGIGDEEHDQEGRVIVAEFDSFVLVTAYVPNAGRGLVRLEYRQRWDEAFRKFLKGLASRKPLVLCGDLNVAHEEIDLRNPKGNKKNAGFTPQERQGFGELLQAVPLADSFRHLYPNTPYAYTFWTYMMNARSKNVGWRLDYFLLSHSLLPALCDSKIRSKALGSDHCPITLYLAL
UniProt Q9Y253: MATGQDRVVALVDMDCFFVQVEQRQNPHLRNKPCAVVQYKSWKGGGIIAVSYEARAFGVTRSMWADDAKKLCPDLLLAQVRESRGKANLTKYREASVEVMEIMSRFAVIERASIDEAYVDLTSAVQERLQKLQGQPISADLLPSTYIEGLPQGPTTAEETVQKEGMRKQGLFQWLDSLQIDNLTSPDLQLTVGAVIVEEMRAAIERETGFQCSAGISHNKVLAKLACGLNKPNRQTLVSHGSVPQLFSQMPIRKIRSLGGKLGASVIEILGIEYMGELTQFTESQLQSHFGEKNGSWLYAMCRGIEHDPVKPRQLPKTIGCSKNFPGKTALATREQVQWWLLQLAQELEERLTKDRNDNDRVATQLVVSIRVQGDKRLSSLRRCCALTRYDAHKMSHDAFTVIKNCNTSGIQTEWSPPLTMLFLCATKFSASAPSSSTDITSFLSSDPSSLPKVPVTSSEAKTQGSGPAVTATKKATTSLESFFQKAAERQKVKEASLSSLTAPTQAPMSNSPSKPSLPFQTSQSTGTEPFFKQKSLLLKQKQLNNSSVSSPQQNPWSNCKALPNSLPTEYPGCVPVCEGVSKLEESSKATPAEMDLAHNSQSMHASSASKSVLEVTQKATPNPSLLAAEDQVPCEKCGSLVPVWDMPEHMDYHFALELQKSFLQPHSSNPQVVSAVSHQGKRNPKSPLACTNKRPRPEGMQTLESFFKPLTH

Experiments:
[1] = molecular target: Rap guanine nucleotide exchange factor 3 (Homo sapiens) (UniProt O95398); test: Counterscreen qHTS for agonist of cAMP-regulated guanine nucleotide exchange factor 3 (EPAC1) (AID 1645889); details: EPAC1 Rap1B-BODIPY-GDP exchange, fluorescence; activation: at 154 µM (top of the series) unless noted; further: nearly all actives have a fitted effect of over 40% in size; further: potency means the concentration at half of the fitted maximal effect; on activation: % of control where 0% means no effect
Method in brief: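 Rap1B-BODIPY-GDP 250 nM + GDP 50 uM; cpds 7-pt, final 9.74 nM–152 uM (activator mode) or from 7.32 nM upwards (inhibitor mode); RT; FI 480/540 nm at 5 and 30 min, then ± cAMP, reread.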

[2] = Counterscreen for APE1 Inhibitors: Fluorescent Dye Displacement Assay (AID 2564);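 further: loss of thiazole orange fluorescence as the dye is displaced from duplex DNA; potency means the concentration at half of the fitted maximal effect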
Method in brief: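 ThO 250 nM + dsDNA 50 nM (THF abasic site, 5'-TAMRA), Tris-HCl pH7.5/50mM NaCl/2 mM MgCl2/0.01% Tween-20; compounds pin-transferred; ex 480/em 540 nm endpoint. Neutral = no compound; no-DNA ThO wells = negative control.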

[3] = molecular target: Endonuclease 4 (Escherichia coli (strain K12)) (UniProt P0A6C1); test: Counterscreen for APE1 Inhibitors: qHTS Assay for Inhibitors of Endonuclease IV (AID 2565);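 further: plate controls were uninhibited enzyme wells for no effect and no enzyme buffer wells for full effect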
Method in brief: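 qHTS concentration-response format; LOPAC1280 tested under APE1-screen conditions. 2 nM enzyme, 15 min compound preincubation at RT, then 50 nM TAMRA/BHQ-2 abasic substrate; kinetic fluorescence read, three reads at 60 s intervals.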

[4] = molecular target: DNA repair nuclease/redox regulator APEX1 (Homo sapiens) (UniProt P27695); test: Confirmation qHTS Assay for Inhibitors of the Human Apurinic/apyrimidinic Endonuclease 1 (APE1) (AID 2572); further: potency means the concentration at half of the fitted maximal effect; nearly all actives have a fitted effect of over 30% in size
Method in brief: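 Enzyme and test compound were incubated for 15 min at room temperature, after which a 50 nM (final) double-stranded abasic-site substrate bearing 5'-TAMRA and 3'-BHQ-2 was added. Incision was followed as fluorescence increase over three reads.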

[5] = qHTS for Inhibitors of WRN Helicase: Thiazole Orange DNA Binding Counterscreen (AID 720499);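 further: drop in dye fluorescence marks compound binding to DNA; potency means the concentration at half of the fitted maximal effect; nearly all actives have a fitted effect of over 60% in size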
Method in brief: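 Compounds were pin-transferred into 50 nM unlabeled DNA premixed with 100 nM thiazole orange. After 15 min at room temperature, fluorescence (ex 480 nm, em 530 nm) was read; loss of signal flags dye displacement from nonspecific DNA binders.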

[6] = molecular target: DNA polymerase eta (Homo sapiens) (UniProt Q9Y253); test: qHTS for Inhibitors of Polymerase Eta: Confirmatory Assay for Cherry-picked Compounds (AID 720502); details: Pol eta primer extension, TAMRA/BHQ fluorescence, 10 min; further: potency means the concentration at half of the fitted maximal effect
Method in brief: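 The reaction starts with 50 nM final labeled DNA substrate added to Pol eta (10 nM) that had sat with compound for 15 min. TAMRA emission at 598 nm is read at 0 and 10 min.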

With `COc1ccccc1Cc1nc2ccccc2nc1SCC(=O)Nc1ccccc1C(F)(F)F` the Potency [1] was “inactive”.
For `CCOCCCn1c(SCC(=O)Nc2cccc(OC)c2)nc2ccccc2c1=O`, the Potency [1] was inconclusive: 2.51 µM [activator, full curve].
For `Cc1nc(SCC(=O)N2CCCCCC2)[nH]c(=O)c1C`, the activation [1] was inconclusive: 30.7% [activator].
In the case of `Cc1ccc(C)c(-n2c3nc(=O)[nH]c(=O)c-3cc3cc([N+](=O)[O-])ccc32)c1`, the Potency [1] is reported as inconclusive: 50.1 µM [activator, partial curve].
For `CCCCN(C(=O)CSCC(=O)Nc1ccc(C)cc1)c1c(N)n(CCCC)c(=O)[nH]c1=O`, the activation [1] was inactive: 6.23% [at 30.8 µM].
For `O=C(Cn1cc(SCc2ccc(Cl)cc2)c2ccccc21)N1CCCC1`, the Potency [1] was inconclusive: 7.08 µM [activator, full curve, poor fit].
With `Cc1ccc2nc(NC(=O)CSc3nc(=O)n(CCCN(C)C)c4c3CCC4)sc2c1` the Potency [1] was inconclusive: 0.01 µM [activator, full curve, poor fit].
For `COC(=O)c1ccc(/C=C2\CCn3c2nc2cc(C(=O)O)ccc2c3=O)cc1`, the activation [1] was inconclusive: 25.3% [activator].
With `Cc1c(CCC(=O)O)c(=O)oc2cc(OCc3ccc(Br)cc3)ccc12` the Potency [1] was “inactive”.
With `CC(C(=O)NC1CC(C)(C)NC(C)(C)C1)c1ccc([N+](=O)[O-])cc1` (stereo unspecified) the activation [1] was inconclusive: 48.7% [activator].
For `COc1cccc(CN2C(=O)C3(SCC(=O)N3c3ccc(F)cc3)c3ccccc32)c1` (stereo unspecified), the Potency [1] was inconclusive: 5.62 µM [activator, full curve].
With `COC(=O)C(Cc1ccc(O)cc1)NC(=O)CCc1nc2ccccc2s1` (stereo unspecified) the activation [1] was inconclusive: 29.4% [activator].
For `O=C1CSC2(C(=O)N(Cc3ccccc3F)c3ccccc32)N1c1ccc(F)cc1` (stereo unspecified), the Potency [1] was inconclusive: 12.6 µM [activator, partial curve].
In the case of `CSc1nc2c(c(C(F)(F)F)n1)CC(C)CC2` (stereo unspecified), the Potency [1] is reported as inconclusive: 0.0141 µM [activator, partial curve, poor fit].
For `CN(c1ncnc2onc(-c3cccc(Cl)c3)c12)C1CCCCC1`, the Potency [1] was inconclusive: 28.2 µM [activator, partial curve].
With `CN(C)C(CNS(=O)(=O)c1ccc(Cl)cc1)c1cccnc1` (stereo unspecified) the Potency [1] was inconclusive: 0.0071 µM [activator, full curve, poor fit].
In the case of `COc1ccccc1N1CCN(S(=O)(=O)c2ccc3c(c2)NC(=O)C(C)C(=O)N3)CC1` (stereo unspecified), the Potency [1] is reported as “inactive”.
With `C=CCn1c(SCC(=O)NC(N)=O)nnc1-c1cc2c(s1)CCC(CC)C2` (stereo unspecified) the Potency [1] was “inactive”.
In the case of `Cc1ccc2nc3sc(C(=O)N4CCCc5ccccc54)c(N)c3cc2c1`, the activation [1] is reported as inconclusive: 39% [activator] [at 30.8 µM].
With `COc1ccc(S(=O)(=O)Nc2cccc(F)c2)cc1C` the activation [1] was inconclusive: 55.5% [activator] [at 30.8 µM].
In the case of `CCn1c(CSc2nc3ccccc3s2)nnc1SCC(=O)c1ccc(O)c(O)c1`, the Potency [2] is reported as inconclusive: 14.1 µM [inhibitor, single point], the Potency [3] is reported as “inactive” and the Potency [4] is reported as inconclusive: 1 µM [inhibitor, full curve]. For the same molecule, the Potency [5] was active: 27.1 µM, the Potency [6] was inconclusive: 84.9 µM [inhibitor, partial curve, poor fit] and the Potency [1] was inconclusive: 15.8 µM [activator, partial curve, poor fit].
